Paper PMC9640553
These are yes or no findings as the source states them, for the method shown. In cells and extracts the contact can be indirect. These calls come from enrichment with a bait or labelling near it, and not all partners need be listed. A no says only that the protein was not detected with the bait. Sequences can lack the tags named with a protein.

Sequences of proteins named here, by UniProt entry; tags and fusion partners are left off.
UniProt O35129: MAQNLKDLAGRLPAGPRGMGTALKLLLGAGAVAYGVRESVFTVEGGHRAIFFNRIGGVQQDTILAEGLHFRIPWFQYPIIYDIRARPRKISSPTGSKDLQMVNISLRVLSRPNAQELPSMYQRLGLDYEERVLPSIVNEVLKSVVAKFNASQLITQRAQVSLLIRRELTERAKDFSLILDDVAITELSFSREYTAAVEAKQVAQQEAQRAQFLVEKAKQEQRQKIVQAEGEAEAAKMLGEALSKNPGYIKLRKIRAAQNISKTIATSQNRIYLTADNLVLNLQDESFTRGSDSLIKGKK

Target: T1, Twinkle-APEX2-V5 (UniProt Q8CIW5)
T1 sequence: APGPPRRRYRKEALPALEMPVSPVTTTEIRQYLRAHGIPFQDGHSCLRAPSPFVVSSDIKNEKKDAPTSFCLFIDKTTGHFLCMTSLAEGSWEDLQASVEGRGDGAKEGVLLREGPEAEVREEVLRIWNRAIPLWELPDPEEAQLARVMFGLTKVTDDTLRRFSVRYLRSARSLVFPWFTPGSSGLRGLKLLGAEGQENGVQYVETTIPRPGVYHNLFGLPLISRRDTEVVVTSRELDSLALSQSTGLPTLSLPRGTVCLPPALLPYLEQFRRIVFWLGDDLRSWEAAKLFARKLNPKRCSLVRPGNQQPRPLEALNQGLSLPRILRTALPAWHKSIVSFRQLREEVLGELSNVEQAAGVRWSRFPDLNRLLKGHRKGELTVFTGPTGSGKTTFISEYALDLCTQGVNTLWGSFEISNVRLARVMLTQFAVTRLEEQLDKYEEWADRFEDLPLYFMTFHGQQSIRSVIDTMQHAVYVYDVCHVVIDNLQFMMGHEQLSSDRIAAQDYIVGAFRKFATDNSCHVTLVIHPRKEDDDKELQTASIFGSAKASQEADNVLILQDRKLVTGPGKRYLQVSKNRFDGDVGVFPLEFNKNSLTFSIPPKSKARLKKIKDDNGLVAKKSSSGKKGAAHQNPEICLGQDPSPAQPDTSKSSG
Experiment: proximity labelling; APEX2 proximity biotinylation in transgenic C2C12 (2.5 mM biotin-phenol 7 h, 1 mM H2O2 1 min), RIPA lysate, streptavidin-magnetic beads, mass spectrometry; enrichment against mitoAPEX2 or empty vector pBabe

## Prohibitin2 (from UniProt O35129 1-299)
  binding: no binding
